Test results taken from US20240238298A1, “JAK Inhibitors for Managing Conditions in Patients with Down's Syndrome or Other Trisomy” (Emory University, priority 2021, published 2024).
At least one compound was matched to its structure with a doubt left.

Tests used:
[1] = test system: Peripheral blood mononuclear cells from individuals with Down's Syndrome; test: markers of NK cell and CD4 T cell inflammation in Down's Syndrome PBMC; assay type: cell-based, human; conditions: baricitinib 1 μM for 24 hours
[2] = test system: primary human monocytes; test: in vitro model of Down's Syndrome-like immune dysregulation in monocytes; assay type: cell-based; conditions: FIG. 1B
[3] = test system: T cells in peripheral blood mononuclear cells from individuals with Down's Syndrome; test: T cell exhaustion markers in Down's Syndrome PBMC; assay type: cell-based, human; conditions: baricitinib 1 μM for 24 hours and/or TCR stimulant
[4] = test system: primary human microglia-like cells; test: in vitro model of Down's Syndrome-like immune dysregulation in microglia-like cells; assay type: cell-based; conditions: FIG. 1A
[5] = test system: Peripheral blood mononuclear cells from individuals with Down's Syndrome; test: markers of monocyte inflammation and cytokines/chemokines associated with cognitive impairment in Down's Syndrome PBMC; assay type: cell-based, human; conditions: baricitinib 1 μM for 24 hours and/or post-treatment with TCR or LPS; FIGS. 2A-2G
[6] = test system: B cells in peripheral blood mononuclear cells from individuals with Down's Syndrome; test: markers of B cell inflammation in Down's Syndrome PBMC; assay type: cell-based, human; conditions: baricitinib 1 μM for 24 hours

## CCS(=O)(=O)N1CC(CC#N)(n2cc(-c3ncnc4[nH]ccc34)cn2)C1 [baricitinib]
[1]; CD4 T cells, FIGS. 3A-E
  secretion of IL1b: reduced
[1]; FIGS. 3A-3E
  markers of basal level inflammation (NK cell inflammation, IL1b secretion capacity of CD4 T cells, other inflammation markers): reverses
[1]; FIGS. 3A-E
  NK inflammation: reduced
  general inflammasome markers in immune cells: reduced
[2]
  peripheral and CNS-trafficking monocyte activation (immune dysregulation marker): reduces
[3]; FIG. 4C
  TCF1 expression on T cells: reduced
[3]; FIGS. 4A-4B
  PD1 expression on T cells: reduced
[4]
  microglia activation (immune dysregulation marker): reduces
[5]
  markers of basal level inflammation (monocyte inflammation, cytokines and chemokines associated with cognitive impairment): reverses
[6]; FIG. 5A
  marker (IFI-16) in B cell inflammation: reduced
[6]; FIG. 5B
  marker (NLRP3) in B cell inflammation: reduced
